PMC6117360
These are yes or no findings as the source states them, for the method shown. In cells and extracts the contact can be indirect. Some entries that bind do so weakly or less than the wild type.

The chains behind the UniProt entries cited, without tags or fusion partners. Residues count along the entry.
UniProt P53762: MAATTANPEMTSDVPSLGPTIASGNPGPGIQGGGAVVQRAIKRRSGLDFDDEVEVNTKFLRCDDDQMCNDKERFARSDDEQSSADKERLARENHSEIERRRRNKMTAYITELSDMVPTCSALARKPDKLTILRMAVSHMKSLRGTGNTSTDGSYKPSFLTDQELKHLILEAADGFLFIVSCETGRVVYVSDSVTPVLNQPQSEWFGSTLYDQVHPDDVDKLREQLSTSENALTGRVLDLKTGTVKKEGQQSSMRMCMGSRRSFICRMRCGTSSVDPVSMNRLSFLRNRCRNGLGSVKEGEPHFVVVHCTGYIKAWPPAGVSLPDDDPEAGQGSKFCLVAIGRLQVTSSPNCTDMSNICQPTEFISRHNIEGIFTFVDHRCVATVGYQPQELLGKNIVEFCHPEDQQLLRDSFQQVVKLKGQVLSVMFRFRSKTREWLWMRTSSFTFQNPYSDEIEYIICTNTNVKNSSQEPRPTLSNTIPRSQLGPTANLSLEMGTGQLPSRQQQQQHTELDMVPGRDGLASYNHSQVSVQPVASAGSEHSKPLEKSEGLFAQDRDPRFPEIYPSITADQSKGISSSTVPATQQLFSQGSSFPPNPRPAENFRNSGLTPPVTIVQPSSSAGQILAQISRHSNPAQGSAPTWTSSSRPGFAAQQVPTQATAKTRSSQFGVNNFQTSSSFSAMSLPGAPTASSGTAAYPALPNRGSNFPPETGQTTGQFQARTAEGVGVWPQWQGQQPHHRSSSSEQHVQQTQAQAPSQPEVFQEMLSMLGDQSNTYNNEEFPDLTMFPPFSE
UniProt P30561, residues 10-848: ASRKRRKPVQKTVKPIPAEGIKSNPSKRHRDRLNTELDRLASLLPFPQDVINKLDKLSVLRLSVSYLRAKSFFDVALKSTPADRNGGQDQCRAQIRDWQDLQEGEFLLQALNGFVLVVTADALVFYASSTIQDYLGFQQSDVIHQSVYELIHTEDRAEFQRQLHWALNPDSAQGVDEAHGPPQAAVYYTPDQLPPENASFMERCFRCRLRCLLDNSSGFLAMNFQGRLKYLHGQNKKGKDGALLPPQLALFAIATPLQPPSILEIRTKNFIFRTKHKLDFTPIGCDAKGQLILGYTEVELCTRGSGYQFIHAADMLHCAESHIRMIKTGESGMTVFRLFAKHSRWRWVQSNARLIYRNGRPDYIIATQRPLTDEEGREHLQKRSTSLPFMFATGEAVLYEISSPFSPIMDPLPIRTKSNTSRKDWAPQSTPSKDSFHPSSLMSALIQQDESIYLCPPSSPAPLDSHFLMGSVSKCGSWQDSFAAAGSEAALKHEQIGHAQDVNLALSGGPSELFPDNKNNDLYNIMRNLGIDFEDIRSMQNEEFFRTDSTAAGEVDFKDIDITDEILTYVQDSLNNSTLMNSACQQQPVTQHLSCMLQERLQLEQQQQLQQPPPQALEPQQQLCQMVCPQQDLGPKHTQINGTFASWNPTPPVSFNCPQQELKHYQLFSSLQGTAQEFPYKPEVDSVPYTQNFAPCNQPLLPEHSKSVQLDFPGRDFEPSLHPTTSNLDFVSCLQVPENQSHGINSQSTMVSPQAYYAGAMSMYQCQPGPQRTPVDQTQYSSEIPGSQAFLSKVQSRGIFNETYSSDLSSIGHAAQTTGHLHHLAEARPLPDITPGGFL

Target: ARNT (mouse (endogenous in EL-4)) (UniProt P53762)
Experiment: co-IP; EL-4 cells treated 24 h with alpinetin (30 uM), TCDD (5 nM), siAhR, CH223191 (10 uM), siAhR + alpinetin or CH223191 + alpinetin; lysed in RIPA buffer; 1 ug antibody against HSP90 or ARNT at 4 C overnight, protein A + G agarose, 4 washes with RIPA, western blotting

Question: “Aryl hydrocarbon receptor (from UniProt P30561 10-848)” was tested. Which binding did it give?
Answer: The binding was “binds”.
